{"source": "paper PMC3368841", "target": "T1, keratin 18 (K18) (human (endogenous in HCT116)) (UniProt P05783)", "T1 sequence": "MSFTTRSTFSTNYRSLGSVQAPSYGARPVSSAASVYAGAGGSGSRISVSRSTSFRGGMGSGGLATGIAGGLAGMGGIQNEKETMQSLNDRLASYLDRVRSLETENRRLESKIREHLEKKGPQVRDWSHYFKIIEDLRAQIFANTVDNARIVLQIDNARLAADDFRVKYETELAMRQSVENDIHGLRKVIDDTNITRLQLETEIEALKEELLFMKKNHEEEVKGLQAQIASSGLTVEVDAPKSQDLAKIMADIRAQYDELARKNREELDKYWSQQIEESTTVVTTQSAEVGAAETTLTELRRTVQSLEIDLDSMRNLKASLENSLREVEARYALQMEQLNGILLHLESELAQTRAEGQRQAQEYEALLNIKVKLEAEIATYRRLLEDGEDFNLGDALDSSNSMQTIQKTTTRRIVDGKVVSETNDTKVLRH", "test": "co-IP; HCT116 cells lysed in EBC buffer (50 mM Tris HCl pH 8.0, 125 mM NaCl, 0.5% NP40); lysates immunoprecipitated with anti-K18 antibody or control IgG; washed 3 times with NET-N buffer; Western blots for PKP3 and K18", "note": "No constants are given. Whether binding was seen depends on the method and setting. In cells and extracts the contact can be indirect. Some binding calls cover weakened binding; strength is not graded here."}
{"binder": "plakophilin3 (PKP3) (protein, UniProt Q9Y446 1-797) MQDGNFLLSALQPEAGVCSLALPSDLQLDRRGAEGPEAERLRAARVQEQVRARLLQLGQQPRHNGAAEPEPEAETARGTSRGQYHTLQAGFSSRSQGLSGDKTSGFRPIAKPAYSPASWSSRSAVDLSCSRRLSSAHNGGSAFGAAGYGGAQPTPPMPTRPVSFHERGGVGSRADYDTLSLRSLRLGPGGLDDRYSLVSEQLEPAATSTYRAFAYERQASSSSSRAGGLDWPEATEVSPSRTIRAPAVRTLQRFQSSHRSRGVGGAVPGAVLEPVARAPSVRSLSLSLADSGHLPDVHGFNSYGSHRTLQRLSSGFDDIDLPSAVKYLMASDPNLQVLGAAYIQHKCYSDAAAKKQARSLQAVPRLVKLFNHANQEVQRHATGAMRNLIYDNADNKLALVEENGIFELLRTLREQDDELRKNVTGILWNLSSSDHLKDRLARDTLEQLTDLVLSPLSGAGGPPLIQQNASEAEIFYNATGFLRNLSSASQATRQKMRECHGLVDALVTSINHALDAGKCEDKSVENAVCVLRNLSYRLYDEMPPSALQRLEGRGRRDLAGAPPGEVVGCFTPQSRRLRELPLAADALTFAEVSKDPKGLEWLWSPQIVGLYNRLLQRCELNRHTTEAAAGALQNITAGDRRWAGVLSRLALEQERILNPLLDRVRTADHHQLRSLTGLIRNLSRNARNKDEMSTKVVSHLIEKLPGSVGEKSPPAEVLVNIIAVLNNLVVASPIAARDLLYFDGLRKLIFIKKKRDSPDSEKSSRAASSLLANLWQYNKLHRDFRAKGYRKEDFLGP", "values": [{"measurement": "binding", "result": "binds"}]}
